# Patent US8288559B2, “Luminogenic compounds and methods to detect cytochrome P450 3A enzymes” (Promega Corporation, priority 2008, dated 2012)
# Sequences of proteins named here, by UniProt entry; tags and fusion partners are left off.
# UniProt P08684, whole entry: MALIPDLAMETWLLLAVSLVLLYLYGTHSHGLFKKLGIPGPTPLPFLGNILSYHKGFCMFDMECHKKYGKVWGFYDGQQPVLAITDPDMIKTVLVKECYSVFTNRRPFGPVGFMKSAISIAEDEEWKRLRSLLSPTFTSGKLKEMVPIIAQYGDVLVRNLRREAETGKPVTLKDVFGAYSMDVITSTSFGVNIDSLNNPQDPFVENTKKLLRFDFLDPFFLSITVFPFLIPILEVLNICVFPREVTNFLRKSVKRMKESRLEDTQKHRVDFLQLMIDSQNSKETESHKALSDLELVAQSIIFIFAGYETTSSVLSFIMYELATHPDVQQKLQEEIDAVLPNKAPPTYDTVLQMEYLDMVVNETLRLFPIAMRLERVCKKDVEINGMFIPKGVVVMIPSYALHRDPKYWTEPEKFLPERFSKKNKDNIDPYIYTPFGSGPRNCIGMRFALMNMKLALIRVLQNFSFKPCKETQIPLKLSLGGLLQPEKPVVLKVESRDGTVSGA
# Legend:
# CYP3A4 [1] = molecular target: T1, CYP3A4 (Homo sapiens, UniProt P08684); conditions: cited from earlier work
# CYP3A4 [2] = molecular target: T1, CYP3A4
# Experimental: In FIGS. 3-6, CYP3A4 enzyme was co-expressed with cytochrome b5 and cytochrome P450 reductase in membrane fractions (Supersomes™). […] The reactions were initiated by addition of the NADPH regenerating system and incubated for 10 minutes at 37° C. After incubation, an equal volume (50 μl) of LDR was added and luminescence read 20 minutes later at room temperature on a Veritas™ luminometer. […] IC50 is the concentration of inhibitor that causes 50% inhibition of the reaction. Curve fits and IC50 calculations were performed with the program GraphPad Prism™.
smiles,measurement,setting,value
COC(=O)C1=C(C)NC(C)=C(C(=O)OC)C1c1ccccc1[N+](=O)[O-] [nifedipine],effect on CYP3A4 assay using luciferin-BE,CYP3A4 [1],stimulated
same,effect on CYP3A4 assay using luciferin-PFBE,CYP3A4 [1],stimulated
same,effect on CYP3A4 assay using luciferin-PPXE,CYP3A4 [1],inhibited
same,effect on the CYP3A4/3391 reaction,CYP3A4 [2],inhibited
